PubChem BioAssay AID1259425, University of Nebraska Medical Center, 2018
Here is an unselected part of about 14,000 deposited reagents. The numbers tell different reagents against one gene apart. Further read-outs or replicates are left out here. Reagent sequences are not shown. Not given: the time to read-out.

Purpose: 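Compare each knockdown with KSR1 silencing using changes in marker transcripts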 (primary screen)
Cells: HCT116 human colon cancer cells
Reagents: siRNA pool against human genes, 50 nM siRNA
Detection: 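mRNA of six signature genes measured together by branched-DNA assay after 50 nM siRNA pool, blank removed, divided by geometric mean of two housekeeping genes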
Scale: BNIP3L mRNA: higher = more BNIP3L transcript after knockdown

{"Target gene":"HAPLN2","reagent":1,"BNIP3L mRNA, set 1":0.0395}
{"Target gene":"FKRP","reagent":1,"BNIP3L mRNA, set 1":0.0757}
{"Target gene":"ADAM19","reagent":1,"BNIP3L mRNA, set 1":0.117}
{"Target gene":"RGSL1","reagent":1,"BNIP3L mRNA, set 1":0.149}
{"Target gene":"IFITM3","reagent":1,"BNIP3L mRNA, set 1":0.114}
{"Target gene":"PLCB2","reagent":1,"BNIP3L mRNA, set 1":0.187}
{"Target gene":"LGALS3","reagent":1,"BNIP3L mRNA, set 1":0.141}
{"Target gene":"LGALS3","reagent":2,"BNIP3L mRNA, set 1":0.104}
{"Target gene":"UBE2E1","reagent":1,"BNIP3L mRNA, set 1":0.0534}
{"Target gene":"OTOA","reagent":1,"BNIP3L mRNA, set 1":0.0946}
{"Target gene":"GDAP1L1","reagent":1,"BNIP3L mRNA, set 1":0.128}
{"Target gene":"ANXA6","reagent":1,"BNIP3L mRNA, set 1":0.0989}
{"Target gene":"GTF2A1L","reagent":1,"BNIP3L mRNA, set 1":0.106}
{"Target gene":"NME6","reagent":1,"BNIP3L mRNA, set 1":0.0312}
{"Target gene":"TRABD","reagent":1,"BNIP3L mRNA, set 1":0.11}
{"Target gene":"HMG20A","reagent":1,"BNIP3L mRNA, set 1":0.0786}
{"Target gene":"RPP21","reagent":1,"BNIP3L mRNA, set 1":0.196}
{"Target gene":"FOXN2","reagent":1,"BNIP3L mRNA, set 1":0.0991}
{"Target gene":"GABRA6","reagent":1,"BNIP3L mRNA, set 1":0.096}
{"Target gene":"IL36RN","reagent":1,"BNIP3L mRNA, set 1":0.0666}
{"Target gene":"RSU1","reagent":1,"BNIP3L mRNA, set 1":0.136}
{"Target gene":"TNK1","reagent":1,"BNIP3L mRNA, set 1":0.112}
{"Target gene":"TAS2R10","reagent":1,"BNIP3L mRNA, set 1":0.16}
{"Target gene":"RNF111","reagent":1,"BNIP3L mRNA, set 1":0.137}
{"Target gene":"JUNB","reagent":1,"BNIP3L mRNA, set 1":0.201}
{"Target gene":"ATP6V1B1","reagent":1,"BNIP3L mRNA, set 1":0.0459}
{"Target gene":"RAD18","reagent":1,"BNIP3L mRNA, set 1":0.0727}
{"Target gene":"ASCC1","reagent":1,"BNIP3L mRNA, set 1":0.0977}

2 neighbouring records already listed, for reference:
{"Target gene":"IFITM3","reagent":1,"BNIP3L mRNA, set 1":0.114}
{"Target gene":"PLCB2","reagent":1,"BNIP3L mRNA, set 1":0.187}
